Experimental data: PubChem BioAssay AID1224829 (NIAID, 2016)
The deposit covers about 3,800 reagents; shown is a random part of them. 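Calls cover raised and lowered translocation; gene median uses one vendor's three siRNAs; qiagen siRNAs acted more weakly than ambion siRNAs.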 The numbers tell different reagents against one gene apart. Not all columns of the deposit are shown.

Screen: 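Secondary check of hits that alter LPS-induced p65 translocation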 (follow-up of hits)
System: mouse RAW264.7 G9 macrophage reporter cells
Reagents: single siRNA against mouse genes, 100 nM
Timing: 2 days of siRNA knock-down, then 40 min of LPS before fixing
Conditions: LPS (Salmonella minnesota R595) at 10 ng/ml
Read-out: 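Imaging of GFP-p65 after 40 min of LPS; nuclear over perinuclear ring intensity ratio, scaled to plate median and non-targeting control wells, given as z-score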
Reading the numbers: p65 translocation z-score: higher = more nuclear NF-kappaB p65 after LPS
Hit rule: 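Active means the replicate-mean z-score lies beyond plus or minus 2, in either direction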
Meaning of the calls: active = changed p65 translocation (either direction); inactive = no clear change

{"Gene":"Cyth2","siRNA no.":1,"siRNA vendor or control pool":"ambion single siRNA","p65 translocation z-score, replicate mean":-2.81,"outcome":"active"}
{"Gene":"Cyth2","siRNA no.":2,"siRNA vendor or control pool":"ambion single siRNA","p65 translocation z-score, replicate mean":-3.78,"outcome":"active"}
{"Gene":"Cyth2","siRNA no.":3,"siRNA vendor or control pool":"ambion single siRNA","p65 translocation z-score, replicate mean":0.33,"outcome":"inactive"}
{"Gene":"Cyth2","siRNA no.":4,"siRNA vendor or control pool":"qiagen single siRNA","p65 translocation z-score, replicate mean":1.65,"outcome":"inactive"}
{"Gene":"Cyth2","siRNA no.":5,"siRNA vendor or control pool":"qiagen single siRNA","p65 translocation z-score, replicate mean":0.613,"outcome":"inactive"}
{"Gene":"Cyth2","siRNA no.":6,"siRNA vendor or control pool":"qiagen single siRNA","p65 translocation z-score, replicate mean":-2.46,"outcome":"active"}

Hits, of those listed so far:
{"Gene":"Cyth2","siRNA no.":1,"siRNA vendor or control pool":"ambion single siRNA","p65 translocation z-score, replicate mean":-2.81,"outcome":"active"}
{"Gene":"Cyth2","siRNA no.":2,"siRNA vendor or control pool":"ambion single siRNA","p65 translocation z-score, replicate mean":-3.78,"outcome":"active"}
{"Gene":"Cyth2","siRNA no.":6,"siRNA vendor or control pool":"qiagen single siRNA","p65 translocation z-score, replicate mean":-2.46,"outcome":"active"}

Continued.
{"Gene":"Or52u1","siRNA no.":1,"siRNA vendor or control pool":"ambion single siRNA","p65 translocation z-score, replicate mean":0.948,"outcome":"inactive"}
{"Gene":"Or52u1","siRNA no.":2,"siRNA vendor or control pool":"ambion single siRNA","p65 translocation z-score, replicate mean":-1.74,"outcome":"inactive"}
{"Gene":"Or52u1","siRNA no.":3,"siRNA vendor or control pool":"ambion single siRNA","p65 translocation z-score, replicate mean":-3.4,"outcome":"active"}
{"Gene":"Or52u1","siRNA no.":4,"siRNA vendor or control pool":"qiagen single siRNA","p65 translocation z-score, replicate mean":2.65,"outcome":"active"}
{"Gene":"Or52u1","siRNA no.":5,"siRNA vendor or control pool":"qiagen single siRNA","p65 translocation z-score, replicate mean":-0.323,"outcome":"inactive"}
{"Gene":"Or52u1","siRNA no.":6,"siRNA vendor or control pool":"qiagen single siRNA","p65 translocation z-score, replicate mean":-0.24,"outcome":"inactive"}
